This experiment addresses recombinant TMEM95∆Tm (mouse TMEM95 lacking the transmembrane domain) (mouse). Description: affinity purification with mass spectrometry; TMEM95∆Tm held by its His tag on His Mag Sepharose Excel beads; incubated overnight at 4°C with the supernatant of WT mouse sperm lysate (50 mM Tris-HCl pH 7.5, 1 mM EDTA, 1% Igepal); eluted with 500 mM imidazole; HPLC-MS/MS; proteins also found with unconjugated beads or with conjugated beads without sperm lysate were removed by a Venn diagram; only the target purified.

No constants are given. Whether binding was seen depends on the method and setting. In cells and extracts the contact can be indirect. These calls come from enrichment with a bait or labelling near it, and not all partners need be listed. No binding means not detected with the bait.

Three molecules from PMC9204177 can be followed below.

B1: DCST1 (protein, UniProt Q059Y8 1-732)
chain: MAFLSSTLHSLGIFEKISRIKEVLKNRLLDLTKRRDQAREQQRKRPHTIIQGLLLWSLPVSWIRFLWRQPGEFPVTAFLLGAGTGGLLAIGLFQLLVNPMNIYEEQKVVALYCLASLGAIGWGTSPHIRCASLLLVPKMLGKEGRLFVMGYALAAIYSGPAANLRSNINEVIASLGCTVELQINNTRSAWRVSTAPLRAVFKGMVGSKDSLNKEIQNVSTSFEEMDEQVKSDAGYSSEDWDKNRESTEMFGTSRVRPYLSTQMVYELRTRLRCIHVVNKAILSCYRWFDKKHKNCMRRIHLPLFNNMICVPMKFKFLCNIAKVIEIWCYKRIPVEGNFGQTYDSVNQSIHGLSGEFSANINLKEEKQSSMVGLNTTNWEHMGTEVRDYVRQQETYLQWAMGLLHVLLSCTFLLVFHSAFSYMDHYNWDIRFDNIYISTYFCQIDARRKKLGKQSLLPLRKAERKTVIFPFKATIQAWEMRYVIRELLETLPIVLLLLVLCAIDWALYSVFDTIRQHSFVQYSFRSSHKLEIKVEGDSILAKLLRKTIGALNTSSSTDVETNNMPCLPQPISLNARDYFKASLPTLLLVCLCLAQAFGYRLRRVIAAFYFPKREKKRALFFYNEFLKKRSAFTKLRRAAIVRRANQQKAPPHYLVEALYRRCPLLHRFMRQRCVVCQAMETPDSYVCPTPDCKALYCRSCWDDMQRLCPVCTPREELSSSAHSDSNDDAVYGD
On to B1, for which the binding entry is listed as “no binding”.

B2: IZUMO1 (protein, UniProt Q9D9J7 22-397)
chain: CIKCDQFVTDALKTFENTYLNDHLPHDIHKNVMRMVNHEVSSFGVVTSAEDSYLGAVDENTLEQATWSFLKDLKRITDSDLKGELFIKELLWMLRHQKDIFNNLARQFQKEVLCPNKCGVMSQTLIWCLKCEKQLHICRKSLDCGERHIEVHRSEDLVLDCLLSWHRASKGLTDYSFYRVWENSSETLIAKGKEPYLTKSMVGPEDAGNYRCVLDTINQGHATVIRYDVTVLPPKHSEENQPPNIITQEEHETPVHVTPQTPPGQEPESELYPELHPELYPELIPTVAQNPEKKMKTRLLILLTLGFVVLVASIIISVLHFRKVSAKLKNASDEVKPTASGSKSDQSLSQQMGLKKASQADFNSDYSGDKSEATEN
Regarding B2, the binding result was “no binding”.

B3: SPACA6 (protein, UniProt E9Q8Q8 42-339)
chain: CLFCFTTYEERLRVCQLFVGREETKINLCRNELEGAFEDLKDMKINYDERSYLHDEFTQMTVSLQEKAARRREPFWLAFKDAAAKLKRTIEHLKKAPACIPPCGLQEVARLFHCSGCFSKLCDLPLDCPVQDMLVNRGDQALFSCIVAFELPESEITYSWKFVGGVRTKDVTYFRDMPGAHGYLARIRPVQPKHGGTFSCVILHDQRPLARLYFYLNVTGPPPPEDTELQVTFREVMNRTPAEPEMIQPWSPSLGELLTNPQALTLGNLFLLAATAALGSASVTLLVWLFFRWYLSGN
With B3, the binding entry is reported as “no binding”.
